# Test results reported in PMC12963976.
# Protein sequences, listed by entry. Tags and fused reporters are not part of them. Lines headed by an entry give the natural chain unless they say otherwise; changes in a name come on top.
# UniProt P15208: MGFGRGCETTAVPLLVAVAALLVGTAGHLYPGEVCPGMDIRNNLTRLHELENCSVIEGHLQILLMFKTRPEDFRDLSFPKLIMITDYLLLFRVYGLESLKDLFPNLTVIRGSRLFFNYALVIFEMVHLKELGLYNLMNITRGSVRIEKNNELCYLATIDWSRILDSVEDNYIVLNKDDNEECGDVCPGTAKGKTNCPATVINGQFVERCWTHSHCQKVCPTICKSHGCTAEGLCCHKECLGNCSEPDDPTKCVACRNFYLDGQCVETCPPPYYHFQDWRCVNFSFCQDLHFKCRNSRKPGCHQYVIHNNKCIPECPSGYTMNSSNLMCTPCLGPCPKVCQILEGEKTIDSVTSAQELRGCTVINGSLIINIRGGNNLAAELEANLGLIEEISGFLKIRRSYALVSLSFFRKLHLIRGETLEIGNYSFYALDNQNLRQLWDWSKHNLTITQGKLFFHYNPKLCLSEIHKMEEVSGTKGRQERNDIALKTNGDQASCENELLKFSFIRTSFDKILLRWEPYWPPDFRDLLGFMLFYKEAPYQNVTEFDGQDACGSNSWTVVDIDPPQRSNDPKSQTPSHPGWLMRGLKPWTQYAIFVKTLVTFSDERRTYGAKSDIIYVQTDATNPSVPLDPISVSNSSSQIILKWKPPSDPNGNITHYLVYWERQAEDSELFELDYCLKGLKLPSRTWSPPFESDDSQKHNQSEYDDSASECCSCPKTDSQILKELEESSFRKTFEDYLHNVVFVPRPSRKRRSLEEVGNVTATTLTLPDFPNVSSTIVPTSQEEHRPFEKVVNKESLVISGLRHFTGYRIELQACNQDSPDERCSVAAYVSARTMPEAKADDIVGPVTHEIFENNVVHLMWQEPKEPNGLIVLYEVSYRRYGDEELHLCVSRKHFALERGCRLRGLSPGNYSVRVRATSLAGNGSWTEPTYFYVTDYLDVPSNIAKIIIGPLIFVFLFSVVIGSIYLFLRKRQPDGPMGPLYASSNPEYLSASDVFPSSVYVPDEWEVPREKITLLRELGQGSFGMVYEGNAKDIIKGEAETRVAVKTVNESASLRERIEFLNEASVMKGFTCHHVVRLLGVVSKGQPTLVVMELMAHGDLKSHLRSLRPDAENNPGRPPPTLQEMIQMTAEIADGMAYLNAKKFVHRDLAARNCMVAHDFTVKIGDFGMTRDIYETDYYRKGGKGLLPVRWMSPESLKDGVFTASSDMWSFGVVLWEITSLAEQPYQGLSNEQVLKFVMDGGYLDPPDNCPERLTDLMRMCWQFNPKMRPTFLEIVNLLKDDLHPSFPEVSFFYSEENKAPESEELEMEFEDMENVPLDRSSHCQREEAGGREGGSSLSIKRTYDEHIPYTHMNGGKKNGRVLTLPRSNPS
# No constants are given. Whether binding was seen depends on the method and setting. In cells and extracts the contact can be indirect. Some entries that bind do so weakly or less than the wild type.
# B1: caveolin-3 (CAV3) (protein, UniProt P51637 1-151)
# chain: MMTEEHTDLEARIIKDIHCKEIDLVNRDPKNINEDIVKVDFEDVIAEPEGTYSFDGVWKVSFTTFTVSKYWCYRLLSTLLGVPLALLWGFLFACISFCHIWAVVPCIKSYLIEIQCISHIYSLCIRTFCNPLFAALGQVCSNIKVVLRREG
# Target: insulin receptor (INSR), endogenous in mouse skeletal muscle (mouse (endogenous in skeletal muscle)) (UniProt P15208)
# Assay: co-IP; 500 ug mouse skeletal muscle (gastrocnemius) lysate with 2 ug INSR antibody (sc-711) at 4 °C overnight, Protein G magnetic beads, western blot; mice injected with PBS or insulin (1.5 U/kg), muscle collected after 5 or 10 minutes
binder,measurement,value
B1,binding,binds
